Reference: PubChem BioAssay AID1224826 (NIAID, 2016)
This is one part, drawn at random, of about 17,000 deposited reagents. In the full data, about 1,110 (6.6%) got an active call. 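Active means lowered or raised reporter signal; replicate intensities are raw and not normalised per plate.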 Entries without a mark were called inactive.

- Purpose: 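Knock-downs that raise or lower Tnf reporter signal after endotoxin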 (primary screen)
- System: RAW264.7 G9 macrophages from mouse bearing reporters for p65 (GFP) and the Tnf promoter (mCherry)
- Reagents: siRNA pool against mouse genes, 100 nM
- Timing: 16 h of LPS stimulation, after 2 days of siRNA transfection
- Conditions: bacterial lipopolysaccharide (Salmonella minnesota R595), 10 ng/ml
- Measured: 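Imaged Tnf reporter mCherry in nuclei, minus background, normalised per plate to the median and expressed as robust z-scores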
- Reading the numbers: Tnf reporter robust z-score: higher = stronger Tnf promoter reporter signal after LPS; Tnf reporter intensity: higher = stronger Tnf promoter reporter signal
- Hit rule: 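a well counts as active at a score of -1.3 or below (Tlr4 knock-down control median) or above 3 (raised signal); controls and wells holding fewer than 50 cells are excluded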
- Meaning of the calls: active = Tnf reporter clearly lowered or raised; inactive = no clear change in Tnf reporter

no.	gene	Tnf reporter robust z-score	fewer than 50 cells in well	Tnf reporter intensity, replicate 1	Tnf reporter intensity, replicate 2
1	Zfp36l1	-0.59	enough cells in well	197	170
2	Zfy2		fewer than 50 cells per well; well left out of calls	107	34.7
3	Slc13a4	-0.28	enough cells in well	105	77.5
4	Mlc1	0.67	enough cells in well	278	289
5	Alpi		fewer than 50 cells per well; well left out of calls	57.9	80.8
6	Atg13	0.38	enough cells in well	234	170
7	Insrr	0.34	enough cells in well	193	202
8	Dock5	-0.76	enough cells in well	138	85.7
9	Cse1l	-1.47 (active)	enough cells in well	112	109
10	Arl5b	0.3	enough cells in well	177	193
11	Slc39a1		fewer than 50 cells per well; well left out of calls	51.5	25.9
12	Clasp2	-0.87	enough cells in well	195	127
13	Nup43		fewer than 50 cells per well; well left out of calls	295	45.2

Records listed above marked active:
gene	Tnf reporter robust z-score	fewer than 50 cells in well	Tnf reporter intensity, replicate 1	Tnf reporter intensity, replicate 2
Cse1l	-1.47 (active)	enough cells in well	112	109

Further results:
no.	gene	Tnf reporter robust z-score	fewer than 50 cells in well	Tnf reporter intensity, replicate 1	Tnf reporter intensity, replicate 2
14	Zfp524		fewer than 50 cells per well; well left out of calls	121	48.9
15	Prm2	-0.84	enough cells in well	108	78.3
16	Slc30a7		fewer than 50 cells per well; well left out of calls	151	42.2
17	Mrps30	-0.03	enough cells in well	249	213
18	Defb14	0.45	enough cells in well	266	145
19	Zfp979	-0.28	enough cells in well	223	64.8
20	St7		fewer than 50 cells per well; well left out of calls	56.5	62.7
21	Tas2r131	1.06	enough cells in well	312	184
22	Gdf3	-1.06	enough cells in well	125	111
23	Lypd11	0.04	enough cells in well	145	188
24	Wrap73	-0.62	enough cells in well	222	168
